According to PubChem BioAssay AID1487 (National Center for Advancing Translational Sciences (NCATS), 2009):
Some of the results follow. The main result of the screen is listed elsewhere. These columns were measured beside it and carry no call. Compounds called inactive in the main read-out are mostly missing here. The note in brackets gives the kind of curve behind each potency; many fits are weak.

Experiment: qHTS Assay for Modulators of Lamin A Splicing
Settings: HeLa LMNA splicing GFP/RFP minigene ratio, 48 h
Outline: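 S3 HeLa stable clones carrying a lamin A-EGFP splicing minigene plus DsRed2 were seeded at 600 cells/well in Opti-MEM with 2% FBS, pin-dosed and incubated 48 h at 37°C. Acumen cytometry (488 nm) gave the GFP/RFP total-intensity ratio.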

[1] = measured here: RFP viability control channel
[2] = measured here: GFP splicing reporter channel

SMILES	AC50 [1]	AC50 [2]
Cc1ccccc1CS(=O)(=O)c1cn(CC(=O)N2CCC(C)CC2)c2ccccc12	0.00794 µM [rising, full curve, poor fit]	–
COc1ccc(S(=O)(=O)Nc2ccc(O)c3ccccc23)cc1	28.2 µM [falling, single point]	35.5 µM [falling, single point]
CCOc1ccc2nc(C)cc(Nc3cccc([N+](=O)[O-])c3)c2c1	25.1 µM [rising, single point]	14.1 µM [rising, partial curve, poor fit]
COC(=O)c1c(NC(=O)C2COc3ccccc3O2)sc2c1CCN(Cc1ccccc1)C2 (stereo unspecified)	8.91 µM [rising, partial curve, poor fit]	–
CCC(C(=O)NCc1cccnc1)c1ccccc1 (stereo unspecified)	–	35.5 µM [rising, single point]
CC(C)COC(=O)c1nnsc1NC(=O)Nc1ccccc1	5.01 µM [rising, partial curve, poor fit]	–
CCc1nc(NCc2cccnc2)c2oc3ccccc3c2n1	22.4 µM [rising, partial curve]	17.8 µM [rising, partial curve]
Cc1cc(C)c2c(c1)cc(C)c1nnc(SCC(=O)Nc3cc(C)on3)n12	31.6 µM [rising, single point]	–
C[C@@H]1CCc2cc(F)cc3c(=O)c(C(=O)O)cn1c23	–	12.6 µM [falling, partial curve, poor fit]
CCc1ccc(S(=O)(=O)N(C(=O)c2ccncc2)c2ccc(OC(=O)c3ccncc3)cc2)cc1	25.1 µM [rising, partial curve, poor fit]	12.6 µM [rising, partial curve, poor fit]
COc1ccc(/C=C/C(=O)Nc2ccc(-c3nnc4n3CCCCC4)cc2)c(OC)c1	35.5 µM [rising, single point]	–
O=C(OCCN1CCCCC1)c1c[nH]c2ccccc12	–	0.0708 µM [rising, full curve, poor fit]
COc1ccc(N(CC(=O)NCc2ccc3c(c2)OCO3)C(=O)CCC(=O)Nc2ccccn2)cc1	2.24 µM [rising, single point]	0.0631 µM [rising, full curve, poor fit]
O=C(NCC(c1cccnc1)N1CCc2ccccc21)c1ccc(F)cc1 (stereo unspecified)	–	5.62 µM [falling, partial curve]
O=C(/C=C/c1ccc(Cl)cc1)NC(=S)Nc1ccc(NC(=O)c2ccco2)cc1	1.78 µM [rising, full curve]	0.891 µM [rising, full curve]
S=c1[nH]nc(COc2ccccc2)n1Cc1ccccc1	35.5 µM [rising, single point]	35.5 µM [rising, single point]
COC(=O)c1ccc(CNC(=O)COC(=O)C23CC4CC(CC(C4)C2)C3)cc1	11.2 µM [rising, partial curve]	–
Cc1nn(-c2ccccc2)c(Cl)c1/C=N/Nc1nc2ccccc2n1C	35.5 µM [rising, single point]	31.6 µM [rising, single point]
Cc1ccc(CNCC(O)(c2ccc(F)cc2)c2ccc(F)cc2)cc1	11.2 µM [falling, partial curve, poor fit]	11.2 µM [falling, single point]
O=S(=O)(c1cccc(S(=O)(=O)N2CCC(n3nnc4ccccc43)CC2)c1)N1CCCCC1	17.8 µM [rising, partial curve]	–
COC(=O)c1cc2sccc2n1CC(=O)N(C)c1ccccc1	10 µM [falling, partial curve]	10 µM [falling, partial curve]
CCOC(=O)c1[nH]c(C)c(C(=O)c2cc(F)ccc2F)c1C	0.447 µM [rising, single point]	35.5 µM [falling, single point]
CCOC(=O)c1sc(NC(=O)c2cccnc2)c(C#N)c1C	10 µM [rising, partial curve]	–
CC(C)(C)OC(=O)NCCc1nnc(SCc2ccc(Cl)cc2)o1	15.8 µM [rising, single point]	–
CC(NS(=O)(=O)c1ccccc1)C(c1cccs1)N1CCN(c2ccccc2)CC1 (stereo unspecified)	22.4 µM [rising, partial curve]	–
CCOCCN1CCN(c2c(C)c(C)nc3cc(-c4cc(OC)cc(OC)c4)nn23)CC1	17.8 µM [rising, single point]	–
CC1CCc2sc(C(=O)Nc3ccc(N4CCOCC4)cc3)cc2C1 (stereo unspecified)	22.4 µM [rising, single point]	–

Complete entries as entered above.
`O=S(=O)(c1cccc(S(=O)(=O)N2CCC(n3nnc4ccccc43)CC2)c1)N1CCCCC1` is listed as AC50 [1]: 17.8 µM [rising, partial curve]
`Cc1ccccc1CS(=O)(=O)c1cn(CC(=O)N2CCC(C)CC2)c2ccccc12` is listed as AC50 [1]: 0.00794 µM [rising, full curve, poor fit]

Next part:

SMILES	AC50 [1]	AC50 [2]
CCCNC1=C(N(C(C)=O)c2cccc(F)c2)C(=O)c2ccccc2C1=O	15.8 µM [falling, partial curve]	2.82 µM [falling, full curve]
CC(C(=O)NCc1ccccc1)N1C(=O)C2CC=C(Cl)CC2C1=O (stereo unspecified)	22.4 µM [rising, single point]	35.5 µM [rising, single point]
O=c1c2ccccc2cnn1Cc1n[nH]c(=S)n1-c1ccc(F)cc1	0.00316 µM [falling, full curve, poor fit]	0.00501 µM [falling, full curve, poor fit]
Nc1ccc2oc(-c3ccccc3Cl)cc(=O)c2c1O	17.8 µM [falling, partial curve]	2.82 µM [falling, partial curve]
CC(C)Cc1c2c([nH]c(=S)c1C#N)CCCC2	7.08 µM [rising, full curve, poor fit]	7.94 µM [rising, partial curve]
NS(=O)(=O)c1ccc(CCNc2nc(CN3CCCCC3)nc3sc4c(c23)CCC4)cc1	31.6 µM [rising, single point]	–
CCCOc1ccc(-c2cnc(SCC(N)=O)nc2N)cc1	35.5 µM [rising, single point]	22.4 µM [rising, single point]
Oc1ccc(Br)cc1-c1nc2cnccn2c1NC1CCCC1	35.5 µM [rising, single point]	–
CCCOc1ccc(C(=O)NCc2ccco2)cc1	10 µM [rising, partial curve, poor fit]	–
Cc1ccc(C)c(OCCn2cc(/C=C(\C#N)C(=O)NCC3CCCO3)c3ccccc32)c1 (stereo unspecified)	–	35.5 µM [rising, single point]
O=C(CC1N=C2c3ccccc3N=C(SCc3cccc(Cl)c3)N2C1=O)NCCc1ccccc1 (stereo unspecified)	4.47 µM [falling, partial curve]	8.91 µM [falling, partial curve]
CCCS(=O)(=O)c1nnnn1-c1cccc(OC)c1	7.08 µM [falling, partial curve]	–
O=C(O)c1ccc(Oc2c(C(F)(F)F)oc3cc(O)ccc3c2=O)cc1	31.6 µM [rising, single point]	–
COc1cc2cc(C(=O)O)[nH]c2c(OC)c1OC	0.00355 µM [falling, full curve, poor fit]	0.00501 µM [falling, full curve, poor fit]
COc1ccc(C)cc1-n1nnnc1SCC(=O)Nc1cccnc1Cl	28.2 µM [rising, single point]	15.8 µM [rising, single point]
c1ccc2c(c1)oc1c(N3CCN(Cc4ccc5c(c4)OCO5)CC3)ncnc12	35.5 µM [rising, single point]	–
COCC(C)n1c(C)cc(C(=O)CSc2nc3ccccc3c(=O)[nH]2)c1C (stereo unspecified)	3.98 µM [rising, full curve]	2 µM [rising, partial curve]
COc1ccc2c(c1)CC/C(=C\C=C\c1ccccc1)C2=O	17.8 µM [rising, partial curve, poor fit]	–
COC(=O)C1=C(C)N(CC2CC2)C(=O)N[C@H]1c1ccccc1	0.0251 µM [falling, full curve, poor fit]	–
Cc1ccc(S(=O)(=O)n2c3ccc(Cl)cc3c3nc(C)sc32)cc1	35.5 µM [rising, single point]	–
COc1ccc(C(=O)Cn2c(Br)nc3c2c(=O)n(C)c(=O)n3C)cc1	22.4 µM [rising, single point]	1.41 µM [rising, partial curve]
COc1ccc2c(c1)O[C@H](c1ccc3c(c1)OCO3)[C@@H](O)C2=O	2.82 µM [rising, full curve, poor fit]	–
CCN(CC)C(=O)CSCc1cnn(-c2ccccc2)c1-n1cccc1	15.8 µM [rising, partial curve, poor fit]	–
CC[C@@H]1C=C(C)C[C@H](C)C[C@H](OC)[C@H]2O[C@@](O)(C(=O)C(=O)N3CCCC[C@H]3C(=O)O[C@H](/C(C)=C/[C@@H]3CC[C@@H](O)[C@H](OC)C3)[C@H](C)[C@@H](O)CC1=O)[C@H](C)C[C@@H]2OC	1.41 µM [rising, partial curve, poor fit]	–
O=C(Cc1noc2ccccc12)Nc1ccc(Cl)cc1	10 µM [rising, partial curve]	15.8 µM [rising, single point]
COc1ccc(-n2c(N)c(C(=O)NCC3CCCO3)c3nc4ccccc4nc32)c(OC)c1 (stereo unspecified)	3.98 µM [falling, partial curve]	–
